Experimental data: patent publication US20080261892A1 (priority 2005, published 2008)

Experiments:
[1] = general procedure: Fmoc solid-phase peptide synthesis; Rink Amide AM; HBTU/HOBt/NMM; details: whole synthesis, scale 2 grams of Rink Amide AM resin (loading: 0.63 mmol/g), TFA salt
[2] = general procedure: Fmoc solid-phase peptide synthesis; Rink Amide AM resin (Novabiochem); HBTU/HOBt/NMM; details: for final HPLC purity: analytical HPLC, detection at 220 nm

Ac-Pro-His-Ser-Cys-Asn-NH2 (PHSCN; N-acetyl, C-amide; Fibronectin derivative (Anti-angiogenesis peptide))
crude mass [1]: 708 mg | step yield ([2]; late stage modification step, D-(+)-camphorsulfonic acid salt): 100% | step yield ([2]; late stage modification step, acetic acid salt): 87% | final HPLC purity ([2]; late stage modification step, free base): 94% monomer | step yield ([2]; late stage modification step, free base, run 1): 69% | step yield ([2]; late stage modification step, free base, run 2): 49% | step yield ([2]; late stage modification step, glycolic acid salt): 99% | step yield ([2]; late stage modification step, phosphoric acid salt): 105% | step yield ([2]; late stage modification step, sulfuric acid salt): 92% | final HPLC purity ([2]; whole synthesis, scale of the general procedure 2 grams of Rink Amide AM resin (loading: 0.63 mmol/g), TFA salt): 99%

Ac-Pro-His-Ser-Cys-Asn-NH2 Methanesulfonic Acid Salt (PHSCN; N-acetyl, C-amide, methanesulfonate salt; printed: Pro-His-Ser-Cys-Asn-)
step yield ([2]; late stage modification step, methanesulfonic acid salt): 98%

Ac-Pro-His-Ser-Cys-Asn-NH2, hydrochloride salt (PHSCN; N-acetyl, C-amide, hydrochloride salt; printed: Pro-His-Ser-Cys-Asn-)
final HPLC purity ([2]; late stage modification step, hydrochloride salt): 93% monomer
